Measurements reported in PubChem BioAssay AID1259308 (NCATS, 2017)
Shown is an unselected part of about 59,000 reagents. About 1,510 of them (2.6%) were called active. 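Calls use total luciferase alone and ignore viability, so some active siRNAs may act by altering cell number.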 Reagents against one gene are numbered here. Further read-outs or replicates are left out here.

Aim: 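Genes whose loss raises luciferase production in HEK293 cells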 (primary screen)
Cell system: human HEK293 embryonic kidney cells stably expressing firefly luciferase (HEK-CMV-Luc2-Hygro)
Knock-down reagent: single siRNA against human genes, 0.8 pmol siRNA per well
Time to read-out: 72 h
Detection: 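Reporter luminescence and viable-cell signal on separate replicate plates, given as percent of non-targeting control and median/MAD z-scores, plus per-cell luciferase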
Direction: total luciferase, z-score: higher = more reporter protein produced
Rule for the call: 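Active when the median/MAD z-score for overall luciferase is greater than 3; a gene was taken forward for validation with new siRNAs if at least two of its three siRNAs passed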
Calls: active = raised luciferase; inactive = no rise

{"Gene": "LINC01501", "siRNA no.": 1, "total luciferase, z-score": -0.392, "activity call": "inactive"}
{"Gene": "LINC01501", "siRNA no.": 2, "total luciferase, z-score": 0.656, "activity call": "inactive"}
{"Gene": "LINC01501", "siRNA no.": 3, "total luciferase, z-score": -0.0144, "activity call": "inactive"}
{"Gene": "MORF4L1", "siRNA no.": 1, "total luciferase, z-score": 0.547, "activity call": "inactive"}
{"Gene": "MORF4L1", "siRNA no.": 2, "total luciferase, z-score": -0.883, "activity call": "inactive"}
{"Gene": "MORF4L1", "siRNA no.": 3, "total luciferase, z-score": -0.764, "activity call": "inactive"}
{"Gene": "BRDT", "siRNA no.": 1, "total luciferase, z-score": 0.979, "activity call": "inactive"}
{"Gene": "BRDT", "siRNA no.": 2, "total luciferase, z-score": -2.04, "activity call": "inactive"}
{"Gene": "BRDT", "siRNA no.": 3, "total luciferase, z-score": 0.597, "activity call": "inactive"}
{"Gene": "USP14", "siRNA no.": 1, "total luciferase, z-score": -0.419, "activity call": "inactive"}
{"Gene": "USP14", "siRNA no.": 2, "total luciferase, z-score": -0.435, "activity call": "inactive"}
{"Gene": "USP14", "siRNA no.": 3, "total luciferase, z-score": -0.428, "activity call": "inactive"}
{"Gene": "LINC01191", "siRNA no.": 1, "total luciferase, z-score": -0.837, "activity call": "inactive"}
{"Gene": "LINC01191", "siRNA no.": 2, "total luciferase, z-score": -1.49, "activity call": "inactive"}
{"Gene": "LINC01191", "siRNA no.": 3, "total luciferase, z-score": 0.966, "activity call": "inactive"}
{"Gene": "COQ5", "siRNA no.": 1, "total luciferase, z-score": -1.67, "activity call": "inactive"}
{"Gene": "COQ5", "siRNA no.": 2, "total luciferase, z-score": -0.889, "activity call": "inactive"}
{"Gene": "COQ5", "siRNA no.": 3, "total luciferase, z-score": -0.301, "activity call": "inactive"}
{"Gene": "CHPF", "siRNA no.": 1, "total luciferase, z-score": 0.985, "activity call": "inactive"}
{"Gene": "CHPF", "siRNA no.": 2, "total luciferase, z-score": -1.66, "activity call": "inactive"}
{"Gene": "CHPF", "siRNA no.": 3, "total luciferase, z-score": -1.81, "activity call": "inactive"}

Entries listed so far whose target name starts with U or u (3):
{"Gene": "USP14", "siRNA no.": 1, "total luciferase, z-score": -0.419, "activity call": "inactive"}
{"Gene": "USP14", "siRNA no.": 2, "total luciferase, z-score": -0.435, "activity call": "inactive"}
{"Gene": "USP14", "siRNA no.": 3, "total luciferase, z-score": -0.428, "activity call": "inactive"}

Next reagents:
{"Gene": "PMFBP1", "siRNA no.": 1, "total luciferase, z-score": -2.89, "activity call": "inactive"}
{"Gene": "PMFBP1", "siRNA no.": 2, "total luciferase, z-score": -1.3, "activity call": "inactive"}
{"Gene": "PMFBP1", "siRNA no.": 3, "total luciferase, z-score": 0.17, "activity call": "inactive"}
{"Gene": "ABHD6", "siRNA no.": 1, "total luciferase, z-score": -0.386, "activity call": "inactive"}
{"Gene": "ABHD6", "siRNA no.": 2, "total luciferase, z-score": 0.627, "activity call": "inactive"}
{"Gene": "ABHD6", "siRNA no.": 3, "total luciferase, z-score": -1.16, "activity call": "inactive"}
{"Gene": "CSTF3-DT", "siRNA no.": 1, "total luciferase, z-score": -0.657, "activity call": "inactive"}
{"Gene": "CSTF3-DT", "siRNA no.": 2, "total luciferase, z-score": 2.64, "activity call": "inactive"}
{"Gene": "CSTF3-DT", "siRNA no.": 3, "total luciferase, z-score": 1.86, "activity call": "inactive"}
{"Gene": "CXCL5", "siRNA no.": 1, "total luciferase, z-score": 0.196, "activity call": "inactive"}
{"Gene": "CXCL5", "siRNA no.": 2, "total luciferase, z-score": 0.141, "activity call": "inactive"}
{"Gene": "CXCL5", "siRNA no.": 3, "total luciferase, z-score": -0.766, "activity call": "inactive"}
